Reference: the supplement of paper PMC12873370
Where “and” joins values, the source holds several entries; their conditions need not be identical. Equal entries are not always repeated. Some of the results follow. Single values are uncertain, as repeats are few or missing.

Columns and labels:
[1] = system: MEPP (mouse ovarian epithelium Trp53/Pten KO); test: cell viability relative to untreated (fraction); higher = less growth inhibition; details: 5 µM; 3 days
[2] = system: PREPP (mouse prostate epithelium Trp53/Pten KO); test: as above; details: 5 µM; 3 days

SMILES	cell viability [1]	cell viability [2]
O=C(O)CCCCC(=O)O	0.961	1.07
COc1cc2c(c(OC)c1OC)-c1c(cc3c(c1OC)OCO3)CC(C)C(C)C2 (centres undefined)	1.15	0.946
CN(C)[C@@H]1C(O)=C(C(N)=O)C(=O)[C@@]2(O)C(O)=C3C(=O)c4c(O)ccc(Cl)c4[C@@](C)(O)[C@H]3C[C@@H]12	0.875	0.757
CC1(C)CC[C@]2(C(=O)O)CC[C@]3(C)[C@H](C(=O)C=C4[C@@]5(C)C=C(C#N)C(=O)C(C)(C)[C@@H]5CC[C@]43C)[C@@H]2C1	0.466	0.787
O[C@@H]1[C@@H](O)[C@@H]2OC[C@@H](O2)[C@H]1O	1.41	1.03
CC1CCC2(O)C(C)(C)C3CCC2(C)C1C3 (centres undefined)	0.993	0.986
NC(=O)NCCC[C@H](N)C(=O)O	1.08	0.87
C=CCSCC=C	0.884	0.878
OC[C@H]1O[C@H](O[C@H]2O[C@H](CO)[C@@H](O)[C@H](O)[C@H]2O)[C@H](O)[C@@H](O)[C@@H]1O	0.889 and 0.92	1.01 and 0.614
CC(=O)c1ccc(O)cc1O	1.01	0.795
O=C([O-])C(O)[C@H](O)[C@@H](O)[C@H](O)[C@H](O)CO.O=C([O-])C(O)[C@H](O)[C@@H](O)[C@H](O)[C@H](O)CO.[Ca+2] (some centres undefined)	1.05	0.922
COc1cc(C=O)ccc1O	0.801	0.944
O=c1cc[nH]c(=O)[nH]1	1.26	0.954
CCN(CC)C(=O)c1cccc(C)c1	0.904	0.816
Cc1c[nH]c2ccccc12	1.29	0.993
Cc1cc(=O)oc2ccc(O)cc12	0.855	1.2
O=c1c(O[C@@H]2O[C@H](CO)[C@H](O)[C@H](O)[C@H]2O)c(-c2ccc(O)c(O)c2)oc2cc(O)cc(O)c12	0.865	1.28
O=C(O)[C@H]1CCCCN1	1.04	0.984
CC1CCC(C(C)C)C(O)C1 (centres undefined)	1.03	1.41
Cn1cc(C(=O)O)ccc1=O	0.906	0.981
c1nc2c[nH]cnc-2n1	0.795	1.16

SMILES	cell viability [1]	cell viability [2]
CO[C@H]1/C=C\C=C(/C)C(=O)NC2=CC(=O)C(NCCN(C)C)=C(C[C@@H](C)C[C@H](OC)[C@H](O)[C@@H](C)/C=C(\C)[C@@H]1OC(N)=O)C2=O	0.949	0.359
CO[C@H]1C[C@@H]2CC[C@@H](C)[C@@](O)(O2)C(=O)C(=O)N2CCCC[C@H]2C(=O)O[C@H]([C@H](C)C[C@@H]2CC[C@@H](O)[C@H](OC)C2)CC(=O)[C@H](C)/C=C(\C)[C@@H](O)[C@@H](OC)C(=O)[C@H](C)C[C@H](C)/C=C/C=C/C=C/1C	0.854	0.717
CC(C)=CCC/C(C)=C/CC/C(C)=C/CC/C(C)=C/CC1=C(C)C(=O)c2ccccc2C1=O	1.12	0.852
C[C@H](CCC(=O)O)[C@H]1CC[C@H]2[C@@H]3C[C@H](O)[C@@H]4C[C@H](O)CC[C@]4(C)[C@H]3CC[C@]12C	0.956	0.93
N[C@@H](Cc1ccc(O)c(O)c1)C(=O)O	1.1	0.931
CO/N=C(\C(=O)N[C@@H]1C(=O)N2C(C(=O)O)=CCS[C@H]12)c1csc(N)n1	1.27	1.03
C[C@@H](O)[C@H]1C(=O)N2C(C(=O)O)=C(SCCNC=N)C[C@H]12	1.09	1.13
C=C[C@@]1(C)CC(=O)[C@]2(O)[C@@]3(C)[C@@H](O)CCC(C)(C)[C@@H]3[C@H](O)[C@H](OC(C)=O)[C@@]2(C)O1	1.01	0.945
CC1CCc2c(N3CCC(O)CC3)c(F)cc3c(=O)c(C(=O)O)cn1c23 (centres undefined)	0.918	0.85
C[C@H](CCC(=O)O)[C@H]1CC[C@H]2[C@@H]3[C@H](O)C[C@@H]4C[C@H](O)CC[C@]4(C)[C@H]3CC[C@]12C	1.18	0.922
CC(=O)OCC(=O)[C@@]1(O)CC[C@H]2[C@@H]3CCC4=CC(=O)CC[C@]4(C)[C@H]3C(=O)C[C@@]21C	0.994	0.909
NC(C=O)C(O)C(O)C(O)CO (centres undefined)	0.952	0.804
COc1c2ccoc2cc2oc(=O)ccc12	1.26	0.836
C[C@@]12C[C@@]3(O)O[C@@H](O1)[C@]1(COC(=O)c4ccccc4)[C@H]3C[C@@]12O[C@@H]1O[C@H](CO)[C@@H](O)[C@H](O)[C@H]1O	1.14	0.957
N[C@H]1C(O)O[C@H](CO)[C@@H](O)[C@@H]1O (some centres undefined)	1.18 and 1.05	0.918 and 1.07
N[C@@H](Cc1c[nH]cn1)C(=O)O	1.06	0.978
CC(=O)N[C@H]1[C@H]([C@@H](O)[C@@H](O)CO)O[C@@](O)(C(=O)O)C[C@@H]1O	0.901	1.1
CN1CC(=O)NC1=O	0.803	1.02
NC(=O)c1ccccc1O	1.22	0.977
CC(C)(O)CC[C@@H](O)[C@](C)(O)[C@H]1CC[C@@]2(O)C3=CC(=O)[C@@H]4C[C@@H](O)[C@@H](O)C[C@]4(C)[C@H]3CC[C@]12C	1.54	0.91
C[N+](C)(C)CCOP(=O)(O)OP(=O)([O-])OC[C@H]1O[C@@H](n2ccc(N)nc2=O)[C@H](O)[C@@H]1O	1.16 and 1.08	0.951 and 1.03

Part of the list above in order of molecular weight, smallest number first.
SMILES	cell viability [1]	cell viability [2]
CN1CC(=O)NC1=O	0.803	1.02
NC(=O)c1ccccc1O	1.22	0.977
N[C@H]1C(O)O[C@H](CO)[C@@H](O)[C@@H]1O (some centres undefined)	1.18 and 1.05	0.918 and 1.07

The list goes on:

SMILES	cell viability [1]	cell viability [2]
Cc1cc(C)nc(NS(=O)(=O)c2ccc(N)cc2)n1	1	0.907
CO[C@H]1/C=C/O[C@@]2(C)Oc3c(C)c(O)c4c(c3C2=O)C2=NC3(CCN(CC(C)C)CC3)NC2=C(NC(=O)/C(C)=C\C=C\[C@H](C)[C@H](O)[C@@H](C)[C@@H](O)[C@@H](C)[C@H](OC(C)=O)[C@@H]1C)C4=O	0.985	0.665
C/C=C1\C(=O)C[C@H]2[C@@H]3CCC4=CC(=O)CC[C@]4(C)[C@H]3CC[C@]12C	0.778	0.877
CC(=O)c1c(O)cc(O)cc1O	0.802	0.895
O=c1cc(-c2ccc(O)cc2)oc2c([C@@H]3O[C@H](CO)[C@@H](O)[C@H](O)[C@H]3O)c(O)c([C@@H]3OC[C@H](O)[C@H](O)[C@H]3O)c(O)c12	1.01	0.901
CSC[C@H](N)C(=O)O	0.888	1.28
CO/N=C1\C[C@]2(C[C@@H]3C[C@@H](C/C=C(\C)C[C@@H](C)/C=C/C=C4\CO[C@@H]5[C@H](O)C(C)=C[C@@H](C(=O)O3)[C@]45O)O2)O[C@H](/C(C)=C/C(C)C)[C@H]1C	0.838	1.07
Oc1ccc(CC2NCCc3cc(O)c(O)cc32)cc1 (centres undefined)	0.892	1.04
CO/N=C(\C(=O)N[C@@H]1C(=O)N2C(C(=O)O)=C(CSC(=O)c3ccco3)CS[C@H]12)c1csc(N)n1	1.12	0.932
Nc1ccn([C@H]2C[C@H](O)[C@@H](COP(=O)(O)O)O2)c(=O)n1	0.911	0.937
N[C@@H](CO)C(=O)O	0.962	0.83
CC(C)N1CCN(c2ccc(OCC3COC(Cn4cncn4)(c4ccc(Cl)cc4Cl)O3)cc2)CC1 (centres undefined)	0.876	0.884
O=C(O)CCNC(=O)c1ccccc1	1.18	0.99
CCCCCCCCCCCCCCCCCCC(=O)OC	0.884	0.812
CC1=C(C(=O)O)N2C(=O)[C@@H](NC(=O)[C@H](N)c3ccccc3)[C@H]2SC1	1.41	0.977
O=C(O)c1cn(-c2ccc(F)cc2)c2cc(N3CCNCC3)c(F)cc2c1=O	1.01	0.856
O=C1c2ccccc2C(=O)c2c(O)c(O)cc(O)c21	1.28	0.91
O=C(O)c1cc(=O)cc(C(=O)O)o1	0.904	0.939
O=c1ccn([C@@H]2O[C@H](COP(=O)(O)OP(=O)(O)O)[C@@H](O)[C@H]2O)c(=O)[nH]1	0.799	0.974
Cl.NCCCC[C@H](N)C(=O)O	1.07	1
C[C@H](CCC(=O)O)[C@H]1CC[C@H]2[C@@H]3[C@H](O)C[C@@H]4C[C@H](O)CC[C@]4(C)[C@H]3C[C@H](O)[C@]12C	1.05 and 1.15	0.945 and 0.993

SMILES	cell viability [1]	cell viability [2]
CCCCCCCCCCCCCCCCCCOCC(O)CO (centres undefined)	0.923	0.901
NCCS	0.925 and 0.815	0.854 and 0.929
CCc1c(Cl)c(O)c(Cl)c(O)c1C(=O)O[C@H]1[C@H](O)[C@H](OC)[C@H](OC/C2=C\C=C\C[C@H](O)/C(C)=C/[C@H](CC)[C@@H](O[C@@H]3OC(C)(C)[C@@H](OC(=O)C(C)C)[C@H](O)[C@@H]3O)/C(C)=C/C(C)=C/C[C@@H]([C@@H](C)O)OC2=O)O[C@@H]1C	1.11	0.878
O=c1[nH]cnc2nc[nH]c12	0.884	0.963
C=CCc1ccc(O)c(OC)c1	0.875	1.05
COc1ccccc1/C=C/C(=O)O	1.04	0.946
Cc1c[nH]c(=O)[nH]c1=O	1.17	0.957
O=c1ccc2cc3ccoc3cc2o1	1.81	0.937
O=C(O)c1cc(=O)c2ccccc2[nH]1	0.93	0.974
CC1=C(/C=C/C(C)=C/C=C/C(C)=C/C=C/C=C(C)/C=C/C=C(C)/C=C/C2=C(C)CCCC2(C)C)C(C)(C)CCC1	0.991	0.888
COc1cccc(C(=O)O)c1	1.04	0.862
CC(=O)N1C[C@H](O)C[C@H]1C(=O)O	0.925	0.973
O=C1CCC[C@@H]2[C@H]3CCC[N+]4([O-])CCC[C@@H](CN12)[C@@H]34 (some centres undefined)	1.03	1.16
OCCc1c[nH]c2ccccc12	0.881	1.02
Cc1c(N)c(=O)n(-c2ccccc2)n1C	0.982	0.839
CN(C)[C@@H]1C(O)=C(C(N)=O)C(=O)[C@@]2(O)C(O)=C3C(=O)c4c(O)cccc4[C@@](C)(O)[C@H]3C[C@@H]12	1.09 and 0.802	0.974 and 1.03
O=Cc1ccc(CO)o1	1.74	0.941
CCC[C@@H]1C[C@@H](C(=O)N[C@@H]([C@H]2O[C@H](SC)[C@H](OP(=O)(O)O)[C@@H](O)[C@H]2O)[C@H](C)Cl)N(C)C1	1.11	1.17
O=C(O)c1ccc(CO)o1	0.782	0.834

By substructure, those above containing fluorine
SMILES	cell viability [1]	cell viability [2]
CC1CCc2c(N3CCC(O)CC3)c(F)cc3c(=O)c(C(=O)O)cn1c23 (centres undefined)	0.918	0.85
O=C(O)c1cn(-c2ccc(F)cc2)c2cc(N3CCNCC3)c(F)cc2c1=O	1.01	0.856
